Experimental data published in doi:10.1101/751974.

Sequences of proteins named here, by UniProt entry; tags and fusion partners are left off.
UniProt P27694: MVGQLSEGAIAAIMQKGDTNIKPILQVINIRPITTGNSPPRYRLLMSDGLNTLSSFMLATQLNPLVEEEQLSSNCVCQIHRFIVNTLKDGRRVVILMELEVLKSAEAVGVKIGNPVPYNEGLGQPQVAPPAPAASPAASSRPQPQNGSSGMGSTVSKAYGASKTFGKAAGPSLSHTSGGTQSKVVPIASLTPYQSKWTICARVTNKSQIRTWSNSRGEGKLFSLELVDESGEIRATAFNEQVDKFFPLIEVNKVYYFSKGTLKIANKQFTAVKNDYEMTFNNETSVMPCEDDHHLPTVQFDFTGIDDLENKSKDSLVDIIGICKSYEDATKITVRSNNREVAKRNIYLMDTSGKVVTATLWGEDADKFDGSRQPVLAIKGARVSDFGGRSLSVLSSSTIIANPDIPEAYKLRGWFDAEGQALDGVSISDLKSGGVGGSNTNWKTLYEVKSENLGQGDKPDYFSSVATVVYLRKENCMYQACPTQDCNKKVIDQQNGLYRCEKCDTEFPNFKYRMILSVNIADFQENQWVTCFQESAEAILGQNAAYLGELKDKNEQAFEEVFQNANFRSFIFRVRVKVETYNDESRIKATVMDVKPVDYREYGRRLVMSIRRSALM

T1: MCM8IP-HA (human) (UniProt Q8N3J3)
T1 sequence: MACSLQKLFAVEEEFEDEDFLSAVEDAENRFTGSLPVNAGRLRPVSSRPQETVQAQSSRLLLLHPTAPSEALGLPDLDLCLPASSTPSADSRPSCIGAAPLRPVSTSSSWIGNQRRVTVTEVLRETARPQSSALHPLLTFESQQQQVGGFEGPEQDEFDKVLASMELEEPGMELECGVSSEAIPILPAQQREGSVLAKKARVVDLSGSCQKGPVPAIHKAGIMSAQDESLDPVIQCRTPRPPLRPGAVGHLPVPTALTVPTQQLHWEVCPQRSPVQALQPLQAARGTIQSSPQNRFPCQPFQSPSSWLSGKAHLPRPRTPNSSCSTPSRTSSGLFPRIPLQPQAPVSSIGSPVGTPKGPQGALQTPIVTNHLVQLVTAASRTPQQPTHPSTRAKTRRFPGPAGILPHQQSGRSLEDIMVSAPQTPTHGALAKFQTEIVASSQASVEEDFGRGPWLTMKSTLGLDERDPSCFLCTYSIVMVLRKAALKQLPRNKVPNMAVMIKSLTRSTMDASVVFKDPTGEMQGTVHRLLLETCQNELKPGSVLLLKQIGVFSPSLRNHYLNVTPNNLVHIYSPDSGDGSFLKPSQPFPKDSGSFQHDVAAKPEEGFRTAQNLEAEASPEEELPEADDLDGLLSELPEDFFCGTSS

T2: BirA*-MCM8IP (human) (UniProt Q8N3J3)
T2 sequence: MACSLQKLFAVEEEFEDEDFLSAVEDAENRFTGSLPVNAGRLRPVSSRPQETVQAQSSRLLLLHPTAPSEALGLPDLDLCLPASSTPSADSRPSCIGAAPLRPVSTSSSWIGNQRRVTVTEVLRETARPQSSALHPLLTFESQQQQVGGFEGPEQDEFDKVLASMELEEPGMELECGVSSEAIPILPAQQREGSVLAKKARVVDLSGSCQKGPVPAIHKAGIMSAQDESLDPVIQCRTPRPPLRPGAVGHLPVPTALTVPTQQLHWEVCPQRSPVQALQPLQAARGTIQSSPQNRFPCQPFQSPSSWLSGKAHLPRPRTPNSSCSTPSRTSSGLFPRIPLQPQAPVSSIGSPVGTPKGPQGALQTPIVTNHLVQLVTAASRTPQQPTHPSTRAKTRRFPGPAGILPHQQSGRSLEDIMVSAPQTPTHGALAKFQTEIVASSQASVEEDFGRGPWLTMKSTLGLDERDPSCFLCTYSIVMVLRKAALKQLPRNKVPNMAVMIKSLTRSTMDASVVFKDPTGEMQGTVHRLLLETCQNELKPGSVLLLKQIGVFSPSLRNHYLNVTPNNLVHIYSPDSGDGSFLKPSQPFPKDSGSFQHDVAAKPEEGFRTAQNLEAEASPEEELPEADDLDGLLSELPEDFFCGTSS

T3: MCM8IP-BirA* (human) (UniProt Q8N3J3)
T3 sequence: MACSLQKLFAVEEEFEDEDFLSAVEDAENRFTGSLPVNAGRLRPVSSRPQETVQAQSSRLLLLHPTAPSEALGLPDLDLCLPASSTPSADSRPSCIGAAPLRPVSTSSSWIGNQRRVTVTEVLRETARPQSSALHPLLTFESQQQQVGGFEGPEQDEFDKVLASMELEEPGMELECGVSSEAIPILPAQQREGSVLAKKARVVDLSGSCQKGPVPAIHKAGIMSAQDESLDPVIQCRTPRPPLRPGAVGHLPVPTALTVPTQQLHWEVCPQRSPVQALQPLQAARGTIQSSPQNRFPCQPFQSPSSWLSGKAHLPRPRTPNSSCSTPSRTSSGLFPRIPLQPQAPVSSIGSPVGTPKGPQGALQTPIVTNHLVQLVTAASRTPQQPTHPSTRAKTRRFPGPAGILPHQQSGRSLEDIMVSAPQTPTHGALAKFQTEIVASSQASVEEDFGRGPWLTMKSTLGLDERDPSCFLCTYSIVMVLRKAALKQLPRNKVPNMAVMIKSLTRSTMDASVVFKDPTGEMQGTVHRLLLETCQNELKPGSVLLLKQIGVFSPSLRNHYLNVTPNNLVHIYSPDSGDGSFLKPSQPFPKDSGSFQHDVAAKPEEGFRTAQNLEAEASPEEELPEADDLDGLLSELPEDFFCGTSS


Legend:
BirA*-RPA1 [1] = biological target: BirA*-RPA1 (UniProt P27694); experiment: proximity labelling
BirA*-RPA1 [2] = biological target: BirA*-RPA1 (UniProt P27694); experiment: proximity labelling; remark: listed apart in the source
MCM8IP-HA (human) = biological target: T1, MCM8IP-HA (human); experiment: affinity purification with mass spectrometry
BirA*-MCM8IP (human) = biological target: T2, BirA*-MCM8IP (human); experiment: proximity labelling
MCM8IP-BirA* (human) = biological target: T3, MCM8IP-BirA* (human); experiment: proximity labelling

Row | binding (BirA*-RPA1 [1]) | binding (BirA*-RPA1 [2]) | binding (MCM8IP-HA (human)) | binding (BirA*-MCM8IP (human)) | binding (MCM8IP-BirA* (human)) | Binder
1 | binds | binds |  |  |  | MCM8IP, endogenous (protein, UniProt Q8N3J3-4 1-646) MACSLQKLFAVEEEFEDEDFLSAVEDAENRFTGSLPVNAGRLRPVSSRPQETVQAQSSRLLLLHPTAPSEALGLPDLDLCLPASSTPSADSRPSCIGAAPLRPVSTSSSWIGNQRRVTVTEVLRETARPQSSALHPLLTFESQQQQVGGFEGPEQDEFDKVLASMELEEPGMELECGVSSEAIPILPAQQREGSVLAKKARVVDLSGSCQKGPVPAIHKAGIMSAQDESLDPVIQCRTPRPPLRPGAVGHLPVPTALTVPTQQLHWEVCPQRSPVQALQPLQAARGTIQSSPQNRFPCQPFQSPSSWLSGKAHLPRPRTPNSSCSTPSRTSSGLFPRIPLQPQAPVSSIGSPVGTPKGPQGALQTPIVTNHLVQLVTAASRTPQQPTHPSTRAKTRRFPGPAGILPHQQSGRSLEDIMVSAPQTPTHGALAKFQTEIVASSQASVEEDFGRGPWLTMKSTLGLDERDPSCFLCTYSIVMVLRKAALKQLPRNKVPNMAVMIKSLTRSTMDASVVFKDPTGEMQGTVHRLLLETCQNELKPGSVLLLKQIGVFSPSLRNHYLNVTPNNLVHIYSPDSGDGSFLKPSQPFPKDSGSFQHDVAAKPEEGFRTAQNLEAEASPEEELPEADDLDGLLSELPEDFFCGTSS
2 |  |  | binds | binds | binds | SMARCAL1, endogenous (protein, UniProt Q9NZC9 1-954) MSLPLTEEQRKKIEENRQKALARRAEKLLAEQHQRTSSGTSIAGNPFQAKQGPSQNFPRESCKPVSHGVIFKQQNLSSSSNADQRPHDSHSFQAKGIWKKPEEMPTACPGHSPRSQMALTGISPPLAQSPPEVPKQQLLSYELGQGHAQASPEIRFTPFANPTHKPLAKPKSSQETPAHSSGQPPRDAKLEAKTAKASPSGQNISYIHSSSESVTPRTEGRLQQKSGSSVQKGVNSQKGKCVRNGDRFQVLIGYNAELIAVFKTLPSKNYDPDTKTWNFSMNDYSALMKAAQSLPTVNLQPLEWAYGSSESPSTSSEGQAGLPSAPSLSFVKGRCMLISRAYFEADISYSQDLIALFKQMDSRRYDVKTRKWSFLLEEHSKLIAKVRCLPQVQLDPLPTTLTLAFASQLKKTSLSLTPDVPEADLSEVDPKLVSNLMPFQRAGVNFAIAKGGRLLLADDMGLGKTIQAICIAAFYRKEWPLLVVVPSSVRFTWEQAFLRWLPSLSPDCINVVVTGKDRLTAGLINIVSFDLLSKLEKQLKTPFKVVIIDESHFLKNSRTARCRAAMPVLKVAKRVILLSGTPAMSRPAELYTQIIAVKPTFFPQFHAFGLRYCDAKRMPWGWDYSGSSNLGELKLLLEEAVMLRRLKSDVLSQLPAKQRKIVVIAPGRINARTRAALDAAAKEMTTKDKTKQQQKDALILFFNRTAEAKIPSVIEYILDLLESGREKFLVFAHHKVVLDAITQELERKHVQHIRIDGSTSSAEREDLCQQFQLSERHAVAVLSITAANMGLTFSSADLVVFAELFWNPGVLIQAEDRVHRIGQTSSVGIHYLVAKGTADDYLWPLIQEKIKVLAEAGLSETNFSEMTESTDYLYKDPKQQKIYDLFQKSFEKEGSDMELLEAAESFDPGSASGTSGSSSQNMGDTLDESSLTASPQKKRRFEFFDNWDSFTSPL

Like-named read-outs stand apart in the source and are kept apart here. No constants are given. Whether binding was seen depends on the method and setting. In cells and extracts the contact can be indirect. These calls come from enrichment with a bait or labelling near it, and not all partners need be listed. For some assays here: Tags and fused reporters may be left off the sequences shown.
